Data on one molecule can be found in article doi:10.1101/2025.09.16.676456.

Chains of the proteins cited; added tags and fusions are not shown. Lines headed by an entry give the natural chain unless they say otherwise; changes in a name come on top.
UniProt P48736: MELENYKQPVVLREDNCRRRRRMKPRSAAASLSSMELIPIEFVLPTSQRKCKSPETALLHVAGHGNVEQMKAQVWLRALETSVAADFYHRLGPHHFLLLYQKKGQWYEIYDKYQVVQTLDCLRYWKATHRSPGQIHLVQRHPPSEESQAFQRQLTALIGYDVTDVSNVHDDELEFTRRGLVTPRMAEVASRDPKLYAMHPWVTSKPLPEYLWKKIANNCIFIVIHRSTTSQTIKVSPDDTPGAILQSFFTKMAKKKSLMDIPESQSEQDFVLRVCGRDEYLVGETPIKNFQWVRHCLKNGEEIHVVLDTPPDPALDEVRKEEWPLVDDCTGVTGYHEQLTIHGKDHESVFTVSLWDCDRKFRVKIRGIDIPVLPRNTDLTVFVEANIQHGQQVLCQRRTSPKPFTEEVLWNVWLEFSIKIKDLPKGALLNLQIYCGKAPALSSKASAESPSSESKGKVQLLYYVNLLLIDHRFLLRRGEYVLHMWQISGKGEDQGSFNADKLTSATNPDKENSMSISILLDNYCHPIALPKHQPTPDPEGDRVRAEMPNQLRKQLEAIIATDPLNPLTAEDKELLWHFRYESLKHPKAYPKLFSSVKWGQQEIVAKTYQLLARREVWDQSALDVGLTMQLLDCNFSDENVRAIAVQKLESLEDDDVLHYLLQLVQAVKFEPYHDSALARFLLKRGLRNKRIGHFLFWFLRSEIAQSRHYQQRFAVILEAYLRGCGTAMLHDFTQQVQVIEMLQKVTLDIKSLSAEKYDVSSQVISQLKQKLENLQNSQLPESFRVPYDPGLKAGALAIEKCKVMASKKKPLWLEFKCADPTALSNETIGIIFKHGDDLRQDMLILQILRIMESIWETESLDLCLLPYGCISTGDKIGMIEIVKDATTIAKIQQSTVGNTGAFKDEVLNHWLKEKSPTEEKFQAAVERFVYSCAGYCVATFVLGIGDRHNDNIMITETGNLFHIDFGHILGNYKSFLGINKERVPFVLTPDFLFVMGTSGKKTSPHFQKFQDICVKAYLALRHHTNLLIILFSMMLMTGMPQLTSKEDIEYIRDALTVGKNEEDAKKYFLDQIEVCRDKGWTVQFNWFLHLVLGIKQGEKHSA

The assay deals with p110γ, class IB PI3K catalytic subunit (human (endogenous in AGS, SNU-C2B, PANC-1)) (UniProt P48736). Briefly: co-IP.

No constants are given. Whether binding was seen depends on the method and setting. In cells and extracts the contact can be indirect. Some results given as binding are weak or reduced against the parent protein; the word gives no strength.

B1: p101, regulatory subunit of p110γ (PI3Kγ) (protein, UniProt Q8WYR1 1-880)
chain: MQPGATTCTEDRIQHALERCLHGLSLSRRSTSWSAGLCLNCWSLQELVSRDPGHFLILLEQILQKTREVQEKGTYDLLTPLALLFYSTVLCTPHFPPDSDLLLKAASTYHRFLTWPVPYCSICQELLTFIDAELKAPGISYQRLVRAEQGLPIRSHRSSTVTVLLLNPVEVQAEFLAVANKLSTPGHSPHSAYTTLLLHAFQATFGAHCDVPGLHCRLQAKTLAELEDIFTETAEAQELASGIGDAAEARRWLRTKLQAVGEKAGFPGVLDTAKPGKLHTIPIPVARCYTYSWSQDSFDILQEILLKEQELLQPGILGDDEEEEEEEEEVEEDLETDGHCAERDSLLSTSSLASHDSTLSLASSQASGPALSRHLLTSFVSGLSDGMDSGYVEDSEESSSEWPWRRGSQERRGHRRPGQKFIRIYKLFKSTSQLVLRRDSRSLEGSSDTALPLRRAGSLCSPLDEPVSPPSRAQRSRSLPQPKLGTQLPSWLLAPASRPQRRRPFLSGDEDPKASTLRVVVFGSDRISGKVARAYSNLRRLENNRPLLTRFFKLQFFYVPVKRSHGTSPGACPPPRSQTPSPPTDSPRHASPGELGTTPWEESTNDISHYLGMLDPWYERNVLGLMHLPPEVLCQQSLKAEAQALEGSPTQLPILADMLLYYCRFAARPVLLQVYQTELTFITGEKTTEIFIHSLELGHSAATRAIKASGPGSKRLGIDGDREAVPLTLQIIYSKGAISGRSRWSNLEKVCTSVNLNKACRKQEELDSSMEALTLNLTEVVKRQNSKSKKGFNQISTSQIKVDKVQIIGSNSCPFAVCLDQDERKILQSVVRCEVSPCYKPEKSDLSSPPQTPPDLPAQAAPDLCSLLCLPIMTFSGALP
For the molecule B1, the binding entry is listed as “binds”.
